# PubChem BioAssay AID1224830 – NIAID, 2016
# Purpose: 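Host factors that control LPS-induced TNF expression in human macrophages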 (primary screen)
# Cells: human THP-1 monocytic leukaemia cells, TNF dual-luciferase reporter clone, PMA-differentiated to macrophage-like cells
# Knock-down reagent: siRNA pool against human genes, 50 nM
# Timing: LPS for 4 h, given about 3 days after siRNA transfection
# Conditions: bacterial LPS (TLR4 ligand), 10 ng/ml
# Measurement: 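Ratio of firefly to renilla light, scaled to the plate median and expressed as a robust z-score per replicate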
# Scale: TNF reporter robust z-score: higher = stronger TNF reporter response to LPS
# Call rule: 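a well is active when its z-score exceeds 2.8 or falls below -1.5; control wells carry no call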
# This is an unselected part of about 18,000 deposited reagents. In the full data, about 2,900 (16%) were called active. 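Calls are made per well; low scores hint the gene aids the LPS response, high scores that it dampens it.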 Repeated entries: four replicate wells of each siRNA pool.
gene,TNF reporter robust z-score,call
ABCC6,0.73,inactive
ABCC6,-0.33,inactive
ABCC6,-0.67,inactive
ABCC6,-0.94,inactive
TTLL10,-0.39,inactive
TTLL10,-0.24,inactive
TTLL10,-0.84,inactive
TTLL10,0.57,inactive
C16orf90,1.44,inactive
C16orf90,2.33,inactive
C16orf90,1.53,inactive
C16orf90,1.89,inactive
REG3G,0.34,inactive
REG3G,0.36,inactive
REG3G,-0.42,inactive
REG3G,0.52,inactive
MYO7B,-0.88,inactive
MYO7B,0.45,inactive
MYO7B,2.14,inactive
MYO7B,0.69,inactive
PKNOX1,-0.3,inactive
PKNOX1,-1.14,inactive
PKNOX1,1.25,inactive
PKNOX1,1.42,inactive
COMMD1,-0.37,inactive
COMMD1,-0.05,inactive
COMMD1,-0.77,inactive
COMMD1,0.61,inactive
GSG1L,2.86,active
GSG1L,1.21,inactive
GSG1L,0.81,inactive
GSG1L,-0.27,inactive
TMC7,-1.66,active
TMC7,-0.92,inactive
TMC7,-1.06,inactive
TMC7,-1.09,inactive
TENT5B,-1.13,inactive
TENT5B,-0.4,inactive
TENT5B,-1.27,inactive
TENT5B,0.08,inactive
GDPGP1,0.65,inactive
GDPGP1,0.2,inactive
GDPGP1,-0.17,inactive
GDPGP1,0.35,inactive
EXT2,-1.32,inactive
EXT2,-1.26,inactive
EXT2,-1.18,inactive
EXT2,-1.35,inactive

Hits, among the entries above:
gene,TNF reporter robust z-score,call
GSG1L,2.86,active
TMC7,-1.66,active
